{
  "sequences": {"note": "The chains behind the UniProt entries cited, without tags or fusion partners.", "UniProt Q9M2F9": "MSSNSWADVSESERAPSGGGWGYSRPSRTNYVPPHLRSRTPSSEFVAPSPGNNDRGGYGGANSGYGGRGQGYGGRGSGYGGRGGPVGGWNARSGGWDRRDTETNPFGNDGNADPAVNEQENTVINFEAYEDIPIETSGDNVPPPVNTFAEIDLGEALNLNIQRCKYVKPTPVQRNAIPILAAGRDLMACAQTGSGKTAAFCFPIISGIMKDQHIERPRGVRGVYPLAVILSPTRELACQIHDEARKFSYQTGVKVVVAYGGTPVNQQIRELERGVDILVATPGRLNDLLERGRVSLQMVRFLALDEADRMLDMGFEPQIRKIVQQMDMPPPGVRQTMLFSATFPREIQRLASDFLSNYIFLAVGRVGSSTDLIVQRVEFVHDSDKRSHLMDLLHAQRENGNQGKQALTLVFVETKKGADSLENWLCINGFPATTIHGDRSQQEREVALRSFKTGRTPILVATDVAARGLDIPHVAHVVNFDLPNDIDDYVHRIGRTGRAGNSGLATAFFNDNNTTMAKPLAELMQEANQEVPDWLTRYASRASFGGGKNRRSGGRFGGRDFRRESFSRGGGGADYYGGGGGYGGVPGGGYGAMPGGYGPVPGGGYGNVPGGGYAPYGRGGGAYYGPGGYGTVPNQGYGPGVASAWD", "UniProt Q8LA13": "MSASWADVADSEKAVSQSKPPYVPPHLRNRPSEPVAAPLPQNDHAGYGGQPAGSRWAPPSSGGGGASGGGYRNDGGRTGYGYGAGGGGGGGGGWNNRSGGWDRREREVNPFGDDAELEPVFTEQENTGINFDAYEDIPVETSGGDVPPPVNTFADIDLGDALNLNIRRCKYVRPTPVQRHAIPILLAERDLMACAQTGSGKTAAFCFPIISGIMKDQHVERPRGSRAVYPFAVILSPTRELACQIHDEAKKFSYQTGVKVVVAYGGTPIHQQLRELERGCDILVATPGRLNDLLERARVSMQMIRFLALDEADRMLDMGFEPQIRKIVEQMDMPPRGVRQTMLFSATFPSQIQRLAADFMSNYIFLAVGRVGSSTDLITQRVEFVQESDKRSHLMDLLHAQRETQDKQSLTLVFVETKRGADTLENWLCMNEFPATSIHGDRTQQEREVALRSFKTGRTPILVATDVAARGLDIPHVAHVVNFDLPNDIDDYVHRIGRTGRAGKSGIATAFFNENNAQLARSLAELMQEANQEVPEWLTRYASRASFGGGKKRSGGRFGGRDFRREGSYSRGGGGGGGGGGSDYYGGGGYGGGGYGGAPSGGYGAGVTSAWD"},
  "source": "paper PMC10879784",
  "molecules": {"B1": {"name": "PAB2 (protein, UniProt P42731 1-629)", "chain": "MAQVQLQGQTPNGSTAAVTSAPATSGGATATQFGNTSLYVGDLDFNVTDSQLFDAFGQMGTVVTVRVCRDLVTRRSLGYGYVNFTNPQDAARAIQELNYIPLYGKPIRVMYSHRDPSVRRSGAGNIFIKNLDESIDHKALHDTFSSFGNIVSCKVAVDSSGQSKGYGFVQYANEESAQKAIEKLNGMLLNDKQVYVGPFLRRQERDSTANKTKFTNVYVKNLAESTTDDDLKNAFGEYGKITSAVVMKDGEGKSKGFGFVNFENADDAARAVESLNGHKFDDKEWYVGRAQKKSERETELRVRYEQNLKEAADKFQSSNLYVKNLDPSISDEKLKEIFSPFGTVTSSKVMRDPNGTSKGSGFVAFATPEEATEAMSQLSGKMIESKPLYVAIAQRKEDRRVRLQAQFSQVRPVAMQPSVGPRMPVYPPGGPGIGQQMFYGQAPPAMIPPQPGYGYQQQLVPGMRPGGGPVPSFFMPMVQPQQQRPGGGRRPGGIQHSQQQNPMMQQQMHPRGRMFRYPQGRGGSGDVPPYDMGNNMPLTIGALASNLSNATPEQQRTMLGEVLYPLVEQVEAESAAKVTGMLLEMDQTEVLHLLESPEALKAKVAEAMDVLRSVAAGGATEQLASLNLS"}, "B2": {"name": "Tudor staphylococcal nuclease TSN1 (protein, UniProt Q8VZG7 1-991)", "chain": "MATGAENQWLKGRVKAVTSGDCLVITALSHNRAGPPPEKTITFSSLMAPKMARRGGIDEPFAWESKEFLRKLCIGKEVAFKVDYKVEAIAGREFGSVFLGNENLAKLVVKTGWAKVREPGQQNQDKVSPYIKELLQLEELAKQEGYGRWSKVPGAAEASIRNLPPSAIGDSAGFDAMGLLAANKGKPMEGIVEQVRDGSTIRVYLLPEFQFVQVFVAGVQAPSMGRRTTNGSVVETVPDEPNGDVSAESRGPLTTAQRLAASAASSVEVSSDPFATEAKYFTEHRVLSRDVRIVLEGVDKFNNLIGSVHYSDGETVKDLGLELVENGLAKFVEWSANMMEEEAKKKLKAAELQCKKDKVKMWANYVPPATNSKAIHDQNFTGKVVEVVSGDCLIVADDAVPFGSPAAERRVCLSSIRSPKMGNPRREEKPAPYAREAREFLRQRLIGKQVIVQMEYSRKVTQGDGPTTSGAADRFMDFGSVFLPSAAKADSDEVTAPPAAAIAGSQPVGVNIAELVLVRGFGNVVRHRDFEERSNHYDALLAAEARALAGKKGIHSAKESPAMHITDLTVSAAKKAKDFLPSLQRIRRIPAVVEYVLSGHRFKLYIPKITCSIAFSFSGVRCPGRGEPYSEEAISVMRRRIMQRDVEIEVETVDRTGTFLGSMWESRTNVATVLLEAGLAKMQTSFGADRIAEAHLLEQAERSAKNQKLKIWENYVEGEEVSNGNTNTVETRQKETLKVVVTEVLGGGRFYVQSAGDQKIASIQNQLASLSIKDAPIIGSFNPKRGDIVLAQFSLDNSWNRAMIVTAPRAAVQSPDEKFEVFYIDYGNQETVPYSAIRPIDPSVSAAPGLAQLCRLAYIKVPSLEDDFGPEAGEYLHTVTLGSGKEFKAVIEERDTSGGKVKGQGTGTEFVVTLIAVDDEISVNAAMLQEGIARMEKRQKWGHKGKQAALDALEKFQEEARKSRIGIWQYGDIESDDEDTGPARKPAGGRR"}, "B3": {"name": "Tudor staphylococcal nuclease TSN2 (protein, UniProt Q9FLT0 1-985)", "chain": "MATGAATENQWLKGRVKAVTSGDCLVITALTHNRAGPPPEKTITLSSLMAPKMARRGGIDEPFAWESREFLRKLCIGKEVAFKVDYKVEAIAGREFGSVYLGNENLAKLVVQNGWAKVRRPGQQNQDKVSPYIAELEQLEEQAQQEGFGRWSKVPGAAEASIRNLPPSAVGDSGNFDAMGLLAASKGKPMEGIVEQVRDGSTIRVYLLPEFQFVQVFVAGLQAPSMGRRQSTQEAVVDPDVTATSNGDASAETRGPLTTAQRLAASAASSVEVSSDPFAMEAKYFTELRVLNRDVRIVLEGVDKFNNLIGSVYYSDGDTVKDLGLELVENGLAKYVEWSANMLDEEAKKKLKATELQCKKNRVKMWANYVPPASNSKAIHDQNFTGKVVEVVSGDCLVVADDSIPFGSPMAERRVCLSSIRSPKMGNPRREEKPAPYAREAKEFLRQKLIGMEVIVQMEYSRKISPGDGVTTSGAGDRVMDFGSVFLPSPTKGDTAVAAAATPGANIAELIISRGLGTVVRHRDFEERSNHYDALLAAEARAIAGKKNIHSAKDSPALHIADLTVASAKKAKDFLPSLQRINQISAVVEYVLSGHRFKLYIPKESCSIAFAFSGVRCPGRGEPYSEEAIALMRRKIMQRDVEIVVENVDRTGTFLGSMWEKNSKTNAGTYLLEAGLAKMQTGFGADRIPEAHILEMAERSAKNQKLKIWENYVEGEEVVNGSSKVETRQKETLKVVVTEVLGGGRFYVQTVGDQKVASIQNQLAALSLKDAPIIGSFNPKKGDIVLAQFSLDNSWNRAMIVNGPRGAVQSPEEEFEVFYIDYGNQEIVPYSAIRPVDPSVSSAPGLAQLCRLAYIKVPGKEEDFGRDAGEYLHTVTLESGKEFRAVVEERDTSGGKVKGQGTGTELVVTLIAVDDEISVNAAMLQEGIARMEKRRRWEPKDKQAALDALEKFQDEARKSRTGIWEYGDIQSDDEDNVPVRKPGRG"}, "B4": {"name": "DCP5 (protein, UniProt Q9C658 1-611)", "chain": "MAADNTGSKSSSAADSYVGSLISLTSKSEIRYEGILYNINTDESSIGLQNVRSFGTEGRKKDGPQVPPSDKVYEYILFRGTDIKDLQVKASPPVQPPASTINNDPAIIQSHYPSPMPTSGSLPSTASGSLPDISSHNGQPGQHGMGFQNAMPLYQPGGNLGSWGASPQPPMYWQGFYTPPPNGLPQLHQQSLIRPPHGLPMPNSLQQPLQYPNFNTPPPPTGSSSLQGSSLPEAPSSLFPFSTSSQMLAPSSLPFPGLPPVTLSSSLQSTLQSAPSPSLASEMAPPLLSNKAPITAPPTLPQDTNLLSFSLSTTRATEASTGLPLSNKPSVVTGPISPPQTTPLTSAPVAGVSSSISQDKPKPLLVTPGQLLQSGSSAVSLSPPSTNADKDVEVVQVSSSAGLEQSVPVTSEAQPPILPLPSSARPTQKPNGHSFPNHNGYRGRGRGRGRGAGRSHQVMKFTEDFDFTAMNEKFNKDEVWGHLGKSTTLDGDEDDDSPTVDEAELPKIEAKPVYNKDDFFDSLSSNTIDRESQNSRPRFSEQRKLDTETFGEFSRFRGGRGGRGGYGRNNGYSRGGYGGRGYGGYGGRGGGGGGYGYGGRGQGRGVSNRTT"}, "B5": {"name": "VARICOSE (protein, UniProt Q9LTT8 1-1344)", "chain": "MASSPGNTNPHNTPPFDLGILFKPSSNPYPPPAASYPPPTGPFLHNQYDQQHYAPPGISAQPSPVTQQQQDVSSSSAATNLHPQRTLSYPTPPLNLQSPRSNHNPGTHILALLNNTNNGAPVANQEPSHQLPVVNHNEIARSFPGGSGPIRVPSCKLPKGRRLIGEHAVYDVDVRLQGEIQPQLEVTPITKYGSDPQLVVGRQIAVNKVYICYGLKGGNIRVLNINTALRSLFRGHSQRVTDMAFFAEDVDMLASVSLDGKVFVWKISEGSEGEDQPQITGKIVLALQILGEEDTKHPRVCWHCHKQEILVVSIGKHVLRIDTTKVGRGEVFSAEAPLQCPLDKLIDGVQIVGKHDGEVTDLSMCQWMTTRLVSSSVDGTIKIWQDRKAQPLVVLRPHDGHPVSSATFVTSPERPDHIILITGGPLNREMKIWVSAGEEGWLLPADAESWRCTQTLDLKSSTEPRAEEAFFNQVIALSEAGLLLLANAKRNALYAVHLDYGSSPVGTRMDYLSEFTVTMPILSFIGTNDPPEEPIVKVYCVQTLAIQQYTLDLCLCLPPPIENMGLEKSDSSVSREANLVEGMSEPSGLKPTDLPSVDSVPKPSIIVNRSESANKLSFPSAEATSQAIVPPNGEPKTSGLPSQTSGAGSAYATLPQLPLSPRLSSKLSGYHTPVEAIEPVIPHHELGGKTPSADYSVDRQMDAVGERNLDVSSVEEISRSKDSNVTPDDDVSGMRSPSAFFKHPTHLVTPSEILMGVSSAEASITTEDRRDRDANIQDVNNDPRDTEVEVKEISEARSTQNGEINDHDETENCTSENREKVFCSQVSNLSTEMARDCYPSTEGTFIPGESKAYGQPIKAGDESGVDSRGGPAKLLKGKKQKAKNSQGPGLSSTSSNVANLADSFNEQSQSLSHPMTDLLPQLLAMQETMNQVMASQKEMQRQLSNAATGPIGKESKRLEVALGRMIEKSSKSNADALWARIQEETVKNEKALRDHAQQIVNATTNFMSKELNAMFEKTIKKELAAIGPALARSVVPVIEKTVSSAITESFQRGIGDKAVNQLDKSVNIKLEATVARQIQAQFQTSGKQALQEGLRSSVESSVIPSFEKACKAMFDQIDSAFQKGIAEHTNAAQQRFDSGHSQLAHTLKESITSASSVAQALSRELAETQRNLLALAAAGANSGGSNSLVTQLSGGPLGALLEKVEAPMDPTTELSRLISERKYEESFTSALQRSDVSIVSWLCSQVDLRGLLAMNPLPLSQGVLLSLLQQLACDISKDTSRKLAWMTDVVAAINPSDQMIAVHARPIFEQVYQILHHHRNAPGSDVSAIRLIMHVINSMLMGCK"}},
  "note": "Results are given in words; binding and its absence hold for the method and conditions named. In cells and extracts the contact can be indirect. These calls come from enrichment with a bait or labelling near it, and not all partners need be listed. Tags and fused reporters may be left off the sequences shown.",
  "data": [
    {"molecular_target": "T1, GFP-AGO1 (ARGONAUTE1, Arabidopsis thaliana) (Arabidopsis thaliana) (UniProt O04379)", "T1 sequence": "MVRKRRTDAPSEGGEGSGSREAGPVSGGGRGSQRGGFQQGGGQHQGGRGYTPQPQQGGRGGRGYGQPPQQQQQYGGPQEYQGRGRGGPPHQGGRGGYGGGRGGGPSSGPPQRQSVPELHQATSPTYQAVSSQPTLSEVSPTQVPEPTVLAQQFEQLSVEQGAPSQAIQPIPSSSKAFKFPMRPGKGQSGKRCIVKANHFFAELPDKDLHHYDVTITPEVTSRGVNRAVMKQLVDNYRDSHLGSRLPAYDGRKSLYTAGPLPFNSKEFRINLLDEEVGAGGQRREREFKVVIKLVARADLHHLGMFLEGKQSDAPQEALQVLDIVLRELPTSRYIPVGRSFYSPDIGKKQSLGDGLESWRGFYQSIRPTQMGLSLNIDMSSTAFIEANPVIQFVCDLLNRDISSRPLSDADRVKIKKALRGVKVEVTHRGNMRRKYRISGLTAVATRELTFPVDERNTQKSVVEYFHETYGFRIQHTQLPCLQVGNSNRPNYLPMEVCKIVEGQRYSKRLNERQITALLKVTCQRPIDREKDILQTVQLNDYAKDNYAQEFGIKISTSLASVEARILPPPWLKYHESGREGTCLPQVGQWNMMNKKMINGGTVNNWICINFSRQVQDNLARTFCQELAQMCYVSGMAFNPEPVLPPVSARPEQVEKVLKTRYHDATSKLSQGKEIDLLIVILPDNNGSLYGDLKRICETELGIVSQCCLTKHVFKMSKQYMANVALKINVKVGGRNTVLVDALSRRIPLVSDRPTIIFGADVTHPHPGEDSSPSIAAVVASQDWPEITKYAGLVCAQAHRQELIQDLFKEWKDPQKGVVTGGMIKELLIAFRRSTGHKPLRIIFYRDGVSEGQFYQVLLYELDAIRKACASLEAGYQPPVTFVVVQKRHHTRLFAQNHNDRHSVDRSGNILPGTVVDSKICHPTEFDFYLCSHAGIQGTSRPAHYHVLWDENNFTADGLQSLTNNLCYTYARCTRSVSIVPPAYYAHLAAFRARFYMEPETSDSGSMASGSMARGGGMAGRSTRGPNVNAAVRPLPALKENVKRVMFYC", "experiment": "affinity purification with mass spectrometry; GFP-AGO1 immunoprecipitated with magnetic microbeads coupled to GFP antibodies (μMACS GFP Isolation Kit) from 7-day-old pAGO1:GFP-AGO1 ago1-27 seedlings after 1 h HS at 37°C; lysis buffer 50mM Tris-HCl pH7,5, 50mM NaCl, 0,25% IGEPAL CA-630, 2mM MgCl2, 5mM DTT; control IPs in Col-0 and the p35S:GFP-3Flag line; nanoLC-MS/MS", "values": [
      {"molecule": "RNA helicase RH52 (from UniProt Q9M2F9 1-646)", "binding": "binds"},
      {"molecule": "G3BP1", "binding": "binds"},
      {"molecule": "RNA helicase RH11 (from UniProt Q8LA13 1-612)", "binding": "binds"},
      {"molecule": "B1", "binding": "binds"},
      {"molecule": "B2", "binding": "binds"},
      {"molecule": "B3", "binding": "binds"},
      {"molecule": "B4", "binding": "binds"},
      {"molecule": "B5", "binding": "binds"}
    ]}
  ]
}
